# From publication PMC6787163 (Frontiers in Chemistry, 2019)
# Assay: general procedure: Fmoc solid-phase peptide synthesis; Tentagel S-RAM (~0.22 mmol/g); HCTU, DIPEA (TLR7 ligand coupling)
# Conditions: for conjugation yield: conjugation step; for step yield: late stage modification step; for isolated mass / isolated yield: whole synthesis
Substance,conjugation yield (run 1),conjugation yield (run 2),further results
"Ac-Lys(1,2-Man2)-Gly-Lys(1,2-Man2)-Gly-Lys(1,2-Man2)-Gly-Lys-NH2",80%,33%,
"Ac-Lys(1,2-Man2)-Gly-Lys(1,2-Man2)-Gly-Lys-NH2",41%,49%,
"Ac-Lys(1,2-Man2)-Lys(1,2-Man2)-Lys(1,2-Man2)-Lys(1,2-Man2)-Lys(1,2-Man2)-Lys(1,2-Man2)-Gly-Lys(pent-4-ynoic amide)-NH2",,,step yield: 96%
"Ac-Lys(1,2-Man2)-Lys(1,2-Man2)-Lys(1,2-Man2)-Lys(1,2-Man2)-Lys(1,2-Man2)-Lys(1,2-Man2)-Gly-Lys-NH2",98%,62%,
"Ac-Lys(1,3-Man2)-Gly-Lys(1,3-Man2)-Gly-Lys(1,3-Man2)-Gly-Lys-NH2",82%,96%,
"Ac-Lys(1,3-Man2)-Gly-Lys(1,3-Man2)-Gly-Lys-NH2",14%,99%,
"Ac-Lys(1,3-Man2)-Lys(1,3-Man2)-Lys(1,3-Man2)-Lys(1,3-Man2)-Lys(1,3-Man2)-Lys(1,3-Man2)-Gly-Lys-NH2",99%,62%,
"Ac-Lys(1,6-Man2)-Gly-Lys(1,6-Man2)-Gly-Lys(1,6-Man2)-Gly-Lys-NH2",85%,90%,
"Ac-Lys(1,6-Man2)-Gly-Lys(1,6-Man2)-Gly-Lys-NH2",28%,76%,
"Ac-Lys(1,6-Man2)-Lys(1,6-Man2)-Lys(1,6-Man2)-Lys(1,6-Man2)-Lys(1,6-Man2)-Lys(1,6-Man2)-Gly-Lys-NH2",57%,56%,
Ac-Lys(Gal)-Gly-Lys(Gal)-Gly-Lys-NH2,,,conjugation yield: 53%
Ac-Lys(Man1)-Gly-Lys(Man1)-Gly-Lys(Man1)-Gly-Lys-NH2,69%,63%,
Ac-Lys(Man1)-Gly-Lys(Man1)-Gly-Lys-NH2,61%,19%,
Ac-Lys(Man1)-Lys(Man1)-Lys(Man1)-Lys(Man1)-Lys(Man1)-Lys(Man1)-Gly-Lys-NH2,82%,59%,
Ac-Lys(Man3)-Gly-Lys(Man3)-Gly-Lys(Man3)-Gly-Lys-NH2,80%,51%,
Ac-Lys(Man3)-Gly-Lys(Man3)-Gly-Lys-NH2,43%,49%,
Ac-Lys(Man3)-Lys(Man3)-Lys(Man3)-Lys(Man3)-Lys(Man3)-Lys(Man3)-Gly-Lys(pent-4-ynoic amide)-NH2,,,step yield: 94%
Ac-Lys(Man3)-Lys(Man3)-Lys(Man3)-Lys(Man3)-Lys(Man3)-Lys(Man3)-Gly-Lys-NH2,,,conjugation yield: 85%
Ac-Val-Thr-His-Thr-Tyr-Leu-Glu-Pro-Gly-Pro-Val-Thr-Ala-Asn-Arg-Gln-Leu-Tyr-Pro-Glu-Trp-Thr-Glu-Ala-Gln-Arg-Leu-Asp-Cys-Trp- -Gly-Lys(Peg-TLR7L)-NH2,,,"isolated mass: 1.03 mg; isolated yield (over 35 couplings, scale of the general procedure 100 μmol (azidolysine backbones), 100–250 μmol (gp100 peptid)): 0.23%"
Ac-Val-Thr-His-Thr-Tyr-Leu-Glu-Pro-Gly-Pro-Val-Thr-Ala-Asn-Arg-Gln-Leu-Tyr-Pro-Glu-Trp-Thr-Glu-Ala-Gln-Arg-Leu-Asp-αAbu-Trp-Arg-Gly-Lys(Peg-TLR7L)-NH2,,,"isolated yield (over 35 couplings, scale 100 µmol): 1.78%; isolated mass (scale 100 µmol): 7.85 mg"
Ac-[Lys(N3)][Lys(N3)][Lys(N3)][Lys(N3)][Lys(N3)][Lys(N3)]GK-NH2,,,isolated mass (scale 100 umol): 51.57 mg; isolated yield (scale 100 umol): 44.1%

# Square brackets hold non-standard residues; d marks the D form. Lys(N3) = [N-]=[N+]=NCCCC[C@H](N)C(=O)O
